Measurements published in the supplement of paper PMC7666118.
This is one part of the list.

By UniProt entry, the sequences of proteins in these tests, tags left out. Where a name states a change or a piece, a line headed by the entry shows the natural chain unless it says otherwise.
UniProt P51665: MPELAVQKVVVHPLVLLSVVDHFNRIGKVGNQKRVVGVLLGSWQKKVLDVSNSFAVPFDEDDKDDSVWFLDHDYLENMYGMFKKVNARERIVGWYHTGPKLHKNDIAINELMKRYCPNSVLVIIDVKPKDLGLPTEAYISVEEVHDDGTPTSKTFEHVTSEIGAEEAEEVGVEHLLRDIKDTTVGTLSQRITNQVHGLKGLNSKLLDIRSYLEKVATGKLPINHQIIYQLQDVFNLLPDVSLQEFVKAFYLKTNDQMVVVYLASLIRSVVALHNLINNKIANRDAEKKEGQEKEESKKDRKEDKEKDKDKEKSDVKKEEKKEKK
UniProt P54725: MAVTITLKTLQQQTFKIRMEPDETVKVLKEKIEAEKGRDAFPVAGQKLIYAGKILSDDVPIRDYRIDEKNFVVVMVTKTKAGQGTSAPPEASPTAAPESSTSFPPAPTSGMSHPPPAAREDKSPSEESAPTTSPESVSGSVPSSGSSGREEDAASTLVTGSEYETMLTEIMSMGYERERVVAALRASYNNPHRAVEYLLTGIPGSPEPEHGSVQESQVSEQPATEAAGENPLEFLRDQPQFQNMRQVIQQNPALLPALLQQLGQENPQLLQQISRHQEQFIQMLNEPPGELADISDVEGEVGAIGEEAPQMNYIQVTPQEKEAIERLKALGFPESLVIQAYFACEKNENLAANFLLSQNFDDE
UniProt Q9UL26: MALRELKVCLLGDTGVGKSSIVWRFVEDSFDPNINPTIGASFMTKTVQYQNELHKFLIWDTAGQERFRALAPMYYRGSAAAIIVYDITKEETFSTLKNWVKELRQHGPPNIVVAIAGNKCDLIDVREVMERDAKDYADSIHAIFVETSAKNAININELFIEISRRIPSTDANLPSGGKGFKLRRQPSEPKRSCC
UniProt P28070, whole entry: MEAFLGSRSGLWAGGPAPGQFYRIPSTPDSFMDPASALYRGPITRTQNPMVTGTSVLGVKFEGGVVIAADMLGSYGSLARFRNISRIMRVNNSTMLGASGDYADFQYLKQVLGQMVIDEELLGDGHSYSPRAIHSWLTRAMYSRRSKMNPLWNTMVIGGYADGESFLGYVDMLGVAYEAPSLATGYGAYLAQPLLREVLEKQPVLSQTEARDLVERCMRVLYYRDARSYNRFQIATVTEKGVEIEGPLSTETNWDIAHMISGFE
UniProt Q8WWY3: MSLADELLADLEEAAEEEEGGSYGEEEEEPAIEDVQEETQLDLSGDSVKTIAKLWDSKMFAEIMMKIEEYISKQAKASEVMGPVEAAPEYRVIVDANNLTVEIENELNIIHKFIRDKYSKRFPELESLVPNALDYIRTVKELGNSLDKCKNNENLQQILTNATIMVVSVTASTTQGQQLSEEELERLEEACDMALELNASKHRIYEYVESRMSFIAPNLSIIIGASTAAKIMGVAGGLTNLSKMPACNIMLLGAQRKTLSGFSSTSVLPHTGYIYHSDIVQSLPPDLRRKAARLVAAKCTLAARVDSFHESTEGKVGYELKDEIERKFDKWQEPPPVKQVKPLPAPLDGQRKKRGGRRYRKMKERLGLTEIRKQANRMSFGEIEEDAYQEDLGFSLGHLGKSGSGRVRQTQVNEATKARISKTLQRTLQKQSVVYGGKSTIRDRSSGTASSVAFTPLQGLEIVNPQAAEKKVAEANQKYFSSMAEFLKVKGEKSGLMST
UniProt Q15223: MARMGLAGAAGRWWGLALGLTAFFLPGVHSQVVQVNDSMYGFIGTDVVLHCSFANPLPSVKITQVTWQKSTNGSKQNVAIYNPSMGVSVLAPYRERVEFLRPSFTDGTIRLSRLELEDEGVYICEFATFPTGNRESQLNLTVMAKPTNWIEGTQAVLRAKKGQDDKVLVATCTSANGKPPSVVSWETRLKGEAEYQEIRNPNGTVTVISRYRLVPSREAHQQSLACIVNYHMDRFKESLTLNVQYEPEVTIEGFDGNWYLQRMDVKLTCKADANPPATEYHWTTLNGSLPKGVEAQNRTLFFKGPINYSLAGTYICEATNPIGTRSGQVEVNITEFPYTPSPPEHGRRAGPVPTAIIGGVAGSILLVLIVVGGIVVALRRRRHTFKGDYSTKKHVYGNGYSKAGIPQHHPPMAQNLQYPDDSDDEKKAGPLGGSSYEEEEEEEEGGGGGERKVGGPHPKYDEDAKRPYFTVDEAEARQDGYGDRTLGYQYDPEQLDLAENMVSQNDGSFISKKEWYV
UniProt Q9H0R6: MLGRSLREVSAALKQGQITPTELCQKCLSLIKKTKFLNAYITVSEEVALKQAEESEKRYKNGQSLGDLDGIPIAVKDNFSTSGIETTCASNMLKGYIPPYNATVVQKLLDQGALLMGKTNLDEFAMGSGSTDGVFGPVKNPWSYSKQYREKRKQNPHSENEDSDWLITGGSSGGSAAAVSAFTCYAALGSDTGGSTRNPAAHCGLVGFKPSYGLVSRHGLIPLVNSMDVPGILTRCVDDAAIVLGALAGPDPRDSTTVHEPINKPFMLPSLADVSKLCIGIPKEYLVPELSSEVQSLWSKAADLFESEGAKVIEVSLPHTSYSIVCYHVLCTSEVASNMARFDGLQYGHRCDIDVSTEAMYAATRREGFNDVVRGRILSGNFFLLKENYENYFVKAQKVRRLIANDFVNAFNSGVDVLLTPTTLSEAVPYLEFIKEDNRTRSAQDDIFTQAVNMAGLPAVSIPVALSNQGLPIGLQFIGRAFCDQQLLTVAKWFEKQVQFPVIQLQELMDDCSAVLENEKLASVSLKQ
UniProt Q8TEU7: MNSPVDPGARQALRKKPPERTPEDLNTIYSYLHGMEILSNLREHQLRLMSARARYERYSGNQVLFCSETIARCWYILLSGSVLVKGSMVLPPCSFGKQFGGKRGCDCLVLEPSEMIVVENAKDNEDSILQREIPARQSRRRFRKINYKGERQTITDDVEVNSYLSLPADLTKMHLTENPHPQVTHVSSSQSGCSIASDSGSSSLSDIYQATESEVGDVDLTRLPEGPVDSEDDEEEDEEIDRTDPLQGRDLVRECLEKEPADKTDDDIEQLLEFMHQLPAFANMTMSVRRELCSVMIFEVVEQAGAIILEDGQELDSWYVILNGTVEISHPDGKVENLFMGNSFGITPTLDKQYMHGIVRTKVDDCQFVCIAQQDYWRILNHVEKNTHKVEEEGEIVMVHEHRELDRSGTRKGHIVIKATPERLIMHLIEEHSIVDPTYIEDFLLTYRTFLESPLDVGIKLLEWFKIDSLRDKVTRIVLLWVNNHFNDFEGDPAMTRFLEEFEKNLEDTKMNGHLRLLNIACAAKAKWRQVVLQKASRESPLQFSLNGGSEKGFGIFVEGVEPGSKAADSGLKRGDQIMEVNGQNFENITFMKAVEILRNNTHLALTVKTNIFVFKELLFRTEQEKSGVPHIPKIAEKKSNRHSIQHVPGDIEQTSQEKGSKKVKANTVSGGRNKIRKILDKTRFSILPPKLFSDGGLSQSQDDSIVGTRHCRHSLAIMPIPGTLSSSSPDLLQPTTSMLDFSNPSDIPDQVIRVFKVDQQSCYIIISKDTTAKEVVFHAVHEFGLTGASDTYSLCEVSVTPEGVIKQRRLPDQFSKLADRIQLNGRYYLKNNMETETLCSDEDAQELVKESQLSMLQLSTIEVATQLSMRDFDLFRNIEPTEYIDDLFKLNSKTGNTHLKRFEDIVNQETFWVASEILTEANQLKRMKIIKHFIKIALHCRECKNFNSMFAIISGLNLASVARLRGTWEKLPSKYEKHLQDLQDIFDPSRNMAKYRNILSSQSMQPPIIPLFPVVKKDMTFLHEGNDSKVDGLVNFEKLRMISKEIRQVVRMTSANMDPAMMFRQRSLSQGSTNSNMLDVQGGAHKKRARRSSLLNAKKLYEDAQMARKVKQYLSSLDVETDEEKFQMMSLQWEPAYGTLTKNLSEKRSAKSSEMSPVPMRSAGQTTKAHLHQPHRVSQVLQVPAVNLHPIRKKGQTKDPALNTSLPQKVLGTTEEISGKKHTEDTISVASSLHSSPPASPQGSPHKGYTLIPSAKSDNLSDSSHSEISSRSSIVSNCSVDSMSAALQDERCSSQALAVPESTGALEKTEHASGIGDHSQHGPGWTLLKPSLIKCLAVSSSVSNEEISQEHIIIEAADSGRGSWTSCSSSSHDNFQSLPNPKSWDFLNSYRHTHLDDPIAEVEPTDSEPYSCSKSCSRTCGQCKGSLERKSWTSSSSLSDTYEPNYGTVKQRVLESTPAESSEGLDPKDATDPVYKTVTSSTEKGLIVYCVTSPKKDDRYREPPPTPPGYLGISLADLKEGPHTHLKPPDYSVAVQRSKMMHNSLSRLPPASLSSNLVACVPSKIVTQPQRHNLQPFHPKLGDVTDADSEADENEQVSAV
UniProt P62191: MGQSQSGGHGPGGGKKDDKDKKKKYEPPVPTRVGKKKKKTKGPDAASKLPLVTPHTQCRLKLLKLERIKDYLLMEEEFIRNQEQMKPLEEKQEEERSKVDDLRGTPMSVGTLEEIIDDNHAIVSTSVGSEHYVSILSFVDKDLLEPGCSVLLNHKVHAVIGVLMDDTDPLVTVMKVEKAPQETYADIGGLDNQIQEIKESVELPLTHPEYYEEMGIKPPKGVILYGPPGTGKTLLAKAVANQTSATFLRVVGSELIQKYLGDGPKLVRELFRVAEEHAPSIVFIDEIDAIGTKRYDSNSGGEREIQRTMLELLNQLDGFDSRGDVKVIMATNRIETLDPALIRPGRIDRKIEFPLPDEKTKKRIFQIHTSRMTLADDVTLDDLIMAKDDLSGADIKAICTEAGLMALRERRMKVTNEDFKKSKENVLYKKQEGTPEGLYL
UniProt O43172: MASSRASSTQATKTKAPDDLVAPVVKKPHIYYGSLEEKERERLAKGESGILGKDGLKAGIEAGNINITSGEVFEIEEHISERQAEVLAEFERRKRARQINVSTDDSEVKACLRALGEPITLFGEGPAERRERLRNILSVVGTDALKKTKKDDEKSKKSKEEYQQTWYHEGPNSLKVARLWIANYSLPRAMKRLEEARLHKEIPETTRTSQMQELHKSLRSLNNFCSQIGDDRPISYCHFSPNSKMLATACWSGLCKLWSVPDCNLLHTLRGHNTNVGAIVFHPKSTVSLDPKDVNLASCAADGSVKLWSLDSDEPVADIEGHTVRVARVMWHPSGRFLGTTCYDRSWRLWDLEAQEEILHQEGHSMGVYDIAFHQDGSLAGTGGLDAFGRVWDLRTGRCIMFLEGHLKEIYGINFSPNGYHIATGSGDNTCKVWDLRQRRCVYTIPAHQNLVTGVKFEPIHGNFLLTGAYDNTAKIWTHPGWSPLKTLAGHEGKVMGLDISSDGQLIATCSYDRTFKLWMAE
UniProt Q92696: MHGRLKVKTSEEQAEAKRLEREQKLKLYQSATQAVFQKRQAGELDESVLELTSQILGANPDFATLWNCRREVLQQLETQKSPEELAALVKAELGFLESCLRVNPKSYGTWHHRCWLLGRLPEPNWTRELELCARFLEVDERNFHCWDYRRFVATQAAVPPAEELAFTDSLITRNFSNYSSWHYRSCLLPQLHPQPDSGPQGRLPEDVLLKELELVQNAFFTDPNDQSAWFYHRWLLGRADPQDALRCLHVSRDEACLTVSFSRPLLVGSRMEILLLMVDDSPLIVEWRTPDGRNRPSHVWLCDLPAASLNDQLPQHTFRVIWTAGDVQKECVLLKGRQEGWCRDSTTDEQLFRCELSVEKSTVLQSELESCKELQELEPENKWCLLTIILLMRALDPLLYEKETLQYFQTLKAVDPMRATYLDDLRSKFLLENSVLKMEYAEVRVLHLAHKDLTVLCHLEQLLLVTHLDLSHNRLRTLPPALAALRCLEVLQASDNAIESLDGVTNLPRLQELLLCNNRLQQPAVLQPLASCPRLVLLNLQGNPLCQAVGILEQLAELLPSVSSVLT
UniProt P28072: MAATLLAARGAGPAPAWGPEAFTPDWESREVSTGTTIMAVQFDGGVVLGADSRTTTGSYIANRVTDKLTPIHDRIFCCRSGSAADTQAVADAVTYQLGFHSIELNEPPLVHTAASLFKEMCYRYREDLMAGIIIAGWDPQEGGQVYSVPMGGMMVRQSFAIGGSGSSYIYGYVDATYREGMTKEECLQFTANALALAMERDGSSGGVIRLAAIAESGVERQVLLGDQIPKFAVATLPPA
UniProt Q96BW5: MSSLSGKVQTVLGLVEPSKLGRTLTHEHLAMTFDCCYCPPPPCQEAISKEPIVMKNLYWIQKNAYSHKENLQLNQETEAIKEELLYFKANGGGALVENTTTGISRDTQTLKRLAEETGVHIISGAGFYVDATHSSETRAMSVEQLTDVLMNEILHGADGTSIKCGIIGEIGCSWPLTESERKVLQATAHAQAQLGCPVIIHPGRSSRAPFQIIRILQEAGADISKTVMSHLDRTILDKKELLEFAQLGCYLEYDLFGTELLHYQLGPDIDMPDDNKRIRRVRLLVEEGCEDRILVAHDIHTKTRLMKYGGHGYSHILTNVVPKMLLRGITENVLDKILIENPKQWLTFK

These targets were tested with COc1ccc(Cn2ccc3ccc(C(=O)NO)cc32)cc1 (assay: dose-dependent thermal stabilisation call (2D-TPP, DLPTP, 10% FDR) (binary (1 = stabilised)); higher = stabilised by the compound). Settings: system: HL-60 intact cells; concentration range 0.04-10 µM.
With R3HDM2 (UniProt Q9Y2K5) the “dose-dependent thermal stabilisation call” value was inactive: 0. RASSF2 (UniProt P50749) was tested, and the “dose-dependent thermal stabilisation call” value was inactive: 0. With PYCR1 (UniProt P32322) the “dose-dependent thermal stabilisation call” value was inactive: 0. In the case of PSMD7 (UniProt P51665), the “dose-dependent thermal stabilisation call” value was inactive: 0. In the case of RAB3C (UniProt Q96E17), the “dose-dependent thermal stabilisation call” value was inactive: 0. For PSMD2 (UniProt Q13200), the “dose-dependent thermal stabilisation call” value was inactive: 0. RAD23A (UniProt P54725) was tested, and the “dose-dependent thermal stabilisation call” value was inactive: 0. In the case of RAB22A (UniProt Q9UL26), the “dose-dependent thermal stabilisation call” value was inactive: 0. For RASA1 (UniProt P20936), the “dose-dependent thermal stabilisation call” value was inactive: 0. With RAB1A (UniProt P62820) the “dose-dependent thermal stabilisation call” value was inactive: 0. PSMB4 (UniProt P28070) was tested, and the “dose-dependent thermal stabilisation call” value was inactive: 0. In the case of PSME4 (UniProt Q14997), the “dose-dependent thermal stabilisation call” value was inactive: 0. In the case of PRPF31 (UniProt Q8WWY3), the “dose-dependent thermal stabilisation call” value was inactive: 0. In the case of PTPN11 (UniProt Q06124), the “dose-dependent thermal stabilisation call” value was inactive: 0. In the case of QSOX2 (UniProt Q6ZRP7), the “dose-dependent thermal stabilisation call” value was inactive: 0. PVRL1 (UniProt Q15223) was tested, and the “dose-dependent thermal stabilisation call” value was inactive: 0. QRSL1 (UniProt Q9H0R6) was tested, and the “dose-dependent thermal stabilisation call” value was inactive: 0. With RAPGEF6 (UniProt Q8TEU7) the “dose-dependent thermal stabilisation call” value was inactive: 0. With PSMC1 (UniProt P62191) the “dose-dependent thermal stabilisation call” value was inactive: 0. In the case of PYGB (UniProt P11216), the “dose-dependent thermal stabilisation call” value was inactive: 0. With PRPF4 (UniProt O43172) the “dose-dependent thermal stabilisation call” value was inactive: 0. With RAB14 (UniProt P61106) the “dose-dependent thermal stabilisation call” value was inactive: 0. PRPS2 (UniProt P11908) was tested, and the “dose-dependent thermal stabilisation call” value was active: 1. In the case of RABGGTA (UniProt Q92696), the “dose-dependent thermal stabilisation call” value was inactive: 0. RALA (UniProt P11233) was tested, and the “dose-dependent thermal stabilisation call” value was inactive: 0. For PXMP2 (UniProt Q9NR77), the “dose-dependent thermal stabilisation call” value was inactive: 0. For RAB5B (UniProt P61020), the “dose-dependent thermal stabilisation call” value was inactive: 0. With RBM7 (UniProt Q9Y580) the “dose-dependent thermal stabilisation call” value was inactive: 0. With RABEP1 (UniProt Q15276) the “dose-dependent thermal stabilisation call” value was inactive: 0. In the case of QSOX1 (UniProt O00391), the “dose-dependent thermal stabilisation call” value was inactive: 0. With PSMB6 (UniProt P28072) the “dose-dependent thermal stabilisation call” value was inactive: 0. RAB7L1 (UniProt O14966) was tested, and the “dose-dependent thermal stabilisation call” value was inactive: 0. In the case of RAC1 (UniProt P63000), the “dose-dependent thermal stabilisation call” value was inactive: 0. In the case of PTER (UniProt Q96BW5), the “dose-dependent thermal stabilisation call” value was inactive: 0. For RAB33A (UniProt Q14088), the “dose-dependent thermal stabilisation call” value was inactive: 0. In the case of RAD23B (UniProt P54727), the “dose-dependent thermal stabilisation call” value was active: 1. In the case of RAB6A (UniProt P20340), the “dose-dependent thermal stabilisation call” value was inactive: 0. For PURB (UniProt Q96QR8), the “dose-dependent thermal stabilisation call” value was inactive: 0.
